Test results taken from patent US20260297165A1, “COMPOSITIONS AND METHODS FOR EXPRESSING THERAPEUTICS” (priority 2023, published 2026).

B1: Vector GTM: wild-type membrane-bound CD59 (mCD59), SEQ ID NO: 43 (protein, UniProt P13987 26-102, looked up)
CD59 glycoprotein: LQCYNCPNPTADCKTAVNCSSDFDACLITKAGLQVYNKCWKFEHCNFNDVTTRLRENELTYYCCKKDLCNFNEQLEN
B2: Vector GTP: Snapgene-optimized mCD59, SEQ ID NO: 43 (protein, UniProt O55186 24-96, looked up)
CD59A glycoprotein: LTCYHCFQPVVSSCNMNSTCSPDQDSCLYAVAGMQVYQRCWKQSDCHGEIIMDQLEETKLKFRCCQFNLCNKS
B3: Vector GTQ: Jcat-optimized mCD59 (protein, UniProt O55186 24-96, looked up)
CD59A glycoprotein: B2 CD59A glycoprotein
B4: Vector GTR: Geneart-optimized mCD59 (protein, UniProt P13987 26-102, looked up)
CD59 glycoprotein: B1 CD59 glycoprotein
modifications: codon-optimized expression vector
notes: Geneart-optimized mCD59
B5: Vector GAT: Genscript-optimized mCD59 (protein, UniProt O55186 24-96, looked up)
CD59A glycoprotein: B2 CD59A glycoprotein

The molecules below were run on Human EXPI293 suspension cells (assay: SDS-PAGE and Western blot of membrane-bound CD59 (mCD59) in lysate of transfected cells). Settings: cell lysate, day 2.
Format: cell-based

Molecule	mCD59 expression
B1	expressed
B2	expressed
B3	expressed
B4	expressed
B5	expressed
